# This is one part of the list.
# Legend:
# Test in all cases: glycan array binding signal (z-score within array); higher = stronger binding
# Conditions in all cases: glycan notation: IUPAC condensed, linker removed
# [1] = biological target: Gal(b1-4)GlcNAc(b1-6)GalNAc
# Method in brief: (§1)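 Glycan array binding is given as a within-array Z-score, which can be read as non-binding when negative. The arrays, 3228 of them, came from the Consortium for Functional Glycomics database and were retained only where the protein sequence was available. Z-scores were averaged across arrays of the same protein sequence at different concentrations or buffers and across linkers.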
# [2] = biological target: Gal(b1-4)GlcNAc(b1-6)[Gal(b1-3)]GalNAc
# Method in brief: as §1
# [3] = biological target: Gal(b1-4)GlcNAc(b1-6)[Gal(b1-4)GlcNAc(b1-3)]GalNAc
# Method in brief: as §1
# Gal(b1-4)GlcNAc6P = biological target: Gal(b1-4)GlcNAc6P
# Method in brief: as §1
# Gal(b1-6)Gal = biological target: Gal(b1-6)Gal
# Method in brief: as §1
# Gal3S(b1-3)GalNAc = biological target: Gal3S(b1-3)GalNAc
# Method in brief: as §1
# Gal3S(b1-3)GlcNAc = biological target: Gal3S(b1-3)GlcNAc
# Method in brief: as §1
# [4] = biological target: Gal3S(b1-3)[Fuc(a1-4)]GlcNAc
# Method in brief: as §1
# Gal3S(b1-4)Glc = biological target: Gal3S(b1-4)Glc
# Method in brief: as §1
# Gal3S(b1-4)Glc6S = biological target: Gal3S(b1-4)Glc6S
# Method in brief: as §1
# Gal3S(b1-4)GlcNAc = biological target: Gal3S(b1-4)GlcNAc
# Method in brief: as §1
# [5] = biological target: Gal3S(b1-4)[Fuc(a1-3)]Glc6S
# Method in brief: as §1
# [6] = biological target: Gal3S(b1-4)[Fuc(a1-3)]GlcNAc
# Method in brief: as §1
# [7] = biological target: Gal3S(b1-4)[Fuc(a1-3)]GlcNAc6S
# Method in brief: as §1
# Gal3S4S(b1-4)GlcNAc = biological target: Gal3S4S(b1-4)GlcNAc
# Method in brief: as §1
# Gal3S6S(b1-4)GlcNAc = biological target: Gal3S6S(b1-4)GlcNAc
# Method in brief: as §1
# Gal3S6S(b1-4)GlcNAc6S = biological target: Gal3S6S(b1-4)GlcNAc6S
# Method in brief: as §1
# Gal4S(b1-4)GlcNAc = biological target: Gal4S(b1-4)GlcNAc
# Method in brief: as §1
# Gal4S6S(b1-4)GlcNAc = biological target: Gal4S6S(b1-4)GlcNAc
# Method in brief: as §1
# Gal6P(b1-4)GlcNAc = biological target: Gal6P(b1-4)GlcNAc
# Method in brief: as §1
# Gal6S(b1-3)GlcNAc = biological target: Gal6S(b1-3)GlcNAc
# Method in brief: as §1
# Gal6S(b1-3)GlcNAc6S = biological target: Gal6S(b1-3)GlcNAc6S
# Method in brief: as §1
# Gal6S(b1-4)Glc = biological target: Gal6S(b1-4)Glc
# Method in brief: as §1
# Gal6S(b1-4)Glc6S = biological target: Gal6S(b1-4)Glc6S
# Method in brief: as §1
# Gal6S(b1-4)GlcNAc = biological target: Gal6S(b1-4)GlcNAc
# Method in brief: as §1
# Gal6S(b1-4)GlcNAc6S = biological target: Gal6S(b1-4)GlcNAc6S
# Method in brief: as §1
# GalNAc(a1-3)Gal = biological target: GalNAc(a1-3)Gal
# Method in brief: as §1
# GalNAc(a1-3)GalNAc = biological target: GalNAc(a1-3)GalNAc
# Method in brief: as §1
# [8] = biological target: GalNAc(a1-3)GalNAc(b1-3)Gal(a1-4)Gal(b1-4)Glc
# Method in brief: as §1
# [9] = biological target: GalNAc(a1-3)GalNAc(b1-3)Gal(a1-4)Gal(b1-4)GlcNAc
# Method in brief: as §1
# GalNAc(b1-3)Gal = biological target: GalNAc(b1-3)Gal
# Method in brief: as §1
# [10] = biological target: GalNAc(b1-3)Gal(a1-4)Gal(b1-4)GlcNAc
# Method in brief: as §1
# [11] = biological target: GalNAc(b1-3)Gal(a1-4)Gal(b1-4)GlcNAc(b1-3)Gal(b1-4)Glc
# Method in brief: as §1
# [12] = biological target: GalNAc(b1-3)Gal(a1-6)Gal(b1-4)Glc
# Method in brief: as §1
# GalNAc(b1-3)GalNAc = biological target: GalNAc(b1-3)GalNAc
# Method in brief: as §1
# GalNAc(b1-3)GlcNAc = biological target: GalNAc(b1-3)GlcNAc
# Method in brief: as §1
# GalNAc(b1-4)Gal(b1-4)Glc = biological target: GalNAc(b1-4)Gal(b1-4)Glc
# Method in brief: as §1
# GalNAc(b1-4)GlcNAc = biological target: GalNAc(b1-4)GlcNAc
# Method in brief: as §1
binder,measurement,setting,value
RobpsCRA (Robinia pseudoacacia) (protein) IKGGYWYSGSGLAVSDINPSHFTHLFCAFADLDPNTNKLTISSSNAAAFSTFTQTVRAKNPSVKTLLSIGGGGGRALAAVFANMASQASRRKSFIDSSIQLARRNNFHGLDLDWEYPSSDIDKTNFASLIREWRAAVATESSTSGTPALLLSAAVGGSDQITPLKYYPGEAIANNLDWVNVMTYDLYTSDSYPTLTQPPAPLFYPRGIFSADEGITKWIQSGVPESKLALGLPFYGFKWRLSDPNNHGLFAPATQGLGAVKYKDIVNTGGQVEFDSTYVTNYCFKGTDWYGYDDTQSISAKVAYAKQRGLFGYFAWHIEQDSNWALS,glycan array binding signal (z-score),[1],-0.712
same,glycan array binding signal (z-score),[2],-0.171
same,glycan array binding signal (z-score),[3],-0.007
same,glycan array binding signal (z-score),Gal(b1-4)GlcNAc6P,-0.574
same,glycan array binding signal (z-score),Gal(b1-6)Gal,-0.367
same,glycan array binding signal (z-score),Gal3S(b1-3)GalNAc,-0.326
same,glycan array binding signal (z-score),Gal3S(b1-3)GlcNAc,0.79
same,glycan array binding signal (z-score),[4],0.013
same,glycan array binding signal (z-score),Gal3S(b1-4)Glc,0.23
same,glycan array binding signal (z-score),Gal3S(b1-4)Glc6S,0.297
same,glycan array binding signal (z-score),Gal3S(b1-4)GlcNAc,0.05
same,glycan array binding signal (z-score),[5],1.65
same,glycan array binding signal (z-score),[6],0.577
same,glycan array binding signal (z-score),[7],-0.084
same,glycan array binding signal (z-score),Gal3S4S(b1-4)GlcNAc,0.05
same,glycan array binding signal (z-score),Gal3S6S(b1-4)GlcNAc,-0.453
same,glycan array binding signal (z-score),Gal3S6S(b1-4)GlcNAc6S,0.612
same,glycan array binding signal (z-score),Gal4S(b1-4)GlcNAc,0.139
same,glycan array binding signal (z-score),Gal4S6S(b1-4)GlcNAc,-0.367
same,glycan array binding signal (z-score),Gal6P(b1-4)GlcNAc,-0.444
same,glycan array binding signal (z-score),Gal6S(b1-3)GlcNAc,-0.277
same,glycan array binding signal (z-score),Gal6S(b1-3)GlcNAc6S,0.549
same,glycan array binding signal (z-score),Gal6S(b1-4)Glc,0.021
same,glycan array binding signal (z-score),Gal6S(b1-4)Glc6S,-0.491
same,glycan array binding signal (z-score),Gal6S(b1-4)GlcNAc,-0.522
same,glycan array binding signal (z-score),Gal6S(b1-4)GlcNAc6S,0.018
same,glycan array binding signal (z-score),GalNAc(a1-3)Gal,-0.414
same,glycan array binding signal (z-score),GalNAc(a1-3)GalNAc,-0.106
same,glycan array binding signal (z-score),[8],-0.305
same,glycan array binding signal (z-score),[9],-0.705
same,glycan array binding signal (z-score),GalNAc(b1-3)Gal,-0.225
same,glycan array binding signal (z-score),[10],0.969
same,glycan array binding signal (z-score),[11],-0.794
same,glycan array binding signal (z-score),[12],-0.698
same,glycan array binding signal (z-score),GalNAc(b1-3)GalNAc,-0.308
same,glycan array binding signal (z-score),GalNAc(b1-3)GlcNAc,0.418
same,glycan array binding signal (z-score),GalNAc(b1-4)Gal(b1-4)Glc,0.371
same,glycan array binding signal (z-score),GalNAc(b1-4)GlcNAc,0.395

# Some of the entries so far, bar-delimited:
binder | measurement | setting | value
RobpsCRA (Robinia pseudoacacia) (protein) IKGGYWYSGSGLAVSDINPSHFTHLFCAFADLDPNTNKLTISSSNAAAFSTFTQTVRAKNPSVKTLLSIGGGGGRALAAVFANMASQASRRKSFIDSSIQLARRNNFHGLDLDWEYPSSDIDKTNFASLIREWRAAVATESSTSGTPALLLSAAVGGSDQITPLKYYPGEAIANNLDWVNVMTYDLYTSDSYPTLTQPPAPLFYPRGIFSADEGITKWIQSGVPESKLALGLPFYGFKWRLSDPNNHGLFAPATQGLGAVKYKDIVNTGGQVEFDSTYVTNYCFKGTDWYGYDDTQSISAKVAYAKQRGLFGYFAWHIEQDSNWALS | glycan array binding signal (z-score) | [7] | -0.084
same | glycan array binding signal (z-score) | Gal3S4S(b1-4)GlcNAc | 0.05
same | glycan array binding signal (z-score) | Gal3S6S(b1-4)GlcNAc | -0.453
same | glycan array binding signal (z-score) | Gal3S6S(b1-4)GlcNAc6S | 0.612
same | glycan array binding signal (z-score) | Gal4S(b1-4)GlcNAc | 0.139
same | glycan array binding signal (z-score) | Gal4S6S(b1-4)GlcNAc | -0.367
same | glycan array binding signal (z-score) | Gal6P(b1-4)GlcNAc | -0.444
same | glycan array binding signal (z-score) | Gal6S(b1-3)GlcNAc | -0.277

# Reference: the supplement of paper PMC8728848
